PubChem BioAssay AID743121 – NCATS | 2013
Assay: 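Partners whose loss is lethal together with topoisomerase I blockade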 (primary screen). Cell system: MDA-MB-231 cells, a human breast cancer line. Reagent: single siRNA against human genes, 20 nM siRNA (0.8 pmol per well). Duration: 120 h (drug added 48 h after transfection, read 72 h later). Conditions: camptothecin 20 nM (about EC30) for 72 h; vehicle 0.1% DMSO in parallel plates. Read-out: 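Cell viability by ATP luminescence (CellTiter-Glo) as % of non-targeting siRNA wells, and the log2 ratio of viability without drug over viability with camptothecin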. Reading the numbers: log2 vehicle/camptothecin viability: higher = stronger sensitisation to camptothecin; viability with camptothecin and viability without drug: higher = more viable cells. Hit rule: 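Active genes have an RSA gene-level p-value below 0.001, computed from the ratios of their separate siRNAs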.
The whole screen tested about 26,000 reagents; this is an unselected part. In the full data, 167 (0.63%) got an active call. 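Calls are per gene from RSA p-values that are not deposited; an individual active-marked siRNA can sensitise only weakly.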 The numbers tell different reagents against one gene apart.

Gene | reagent no. | log2 vehicle/camptothecin viability | viability with camptothecin (% of control) | viability without drug (% of control) | Call
MARVELD3 (MARVEL domain containing 3) | 1 | -0.128 | 108 | 98.9 | inactive
MARVELD3 (MARVEL domain containing 3) | 2 | -0.327 | 93.7 | 74.7 | inactive
MARVELD3 (MARVEL domain containing 3) | 3 | -0.0835 | 85 | 80.2 | inactive
MARVELD3 (MARVEL domain containing 3) | 4 | -1.02 | 51.2 | 25.3 | inactive
MARVELD3 (MARVEL domain containing 3) | 5 | 0.146 | 73.5 | 81.4 | inactive
MARVELD3 (MARVEL domain containing 3) | 6 | -0.216 | 94.3 | 81.1 | inactive
OSGEPL1 (O-sialoglycoprotein endopeptidase like 1) | 1 | -0.149 | 47.2 | 42.6 | inactive
OSGEPL1 (O-sialoglycoprotein endopeptidase like 1) | 2 | -0.289 | 87.1 | 71.3 | inactive
OSGEPL1 (O-sialoglycoprotein endopeptidase like 1) | 3 | -0.068 | 98.9 | 94.4 | inactive
OSGEPL1 (O-sialoglycoprotein endopeptidase like 1) | 4 | -0.184 | 67.1 | 59.1 | inactive
PRDX2 (peroxiredoxin 2) | 1 | -0.744 | 75 | 44.8 | inactive
PRDX2 (peroxiredoxin 2) | 2 | -0.52 | 45.5 | 31.7 | inactive
PRDX2 (peroxiredoxin 2) | 3 | 0.0914 | 65.1 | 69.3 | inactive
PRDX2 (peroxiredoxin 2) | 4 | -0.173 | 98.2 | 87.1 | inactive
PRDX2 (peroxiredoxin 2) | 5 | -0.305 | 67.8 | 54.9 | inactive
PRDX2 (peroxiredoxin 2) | 6 | -0.345 | 67.7 | 53.3 | inactive
PRDX2 (peroxiredoxin 2) | 7 | 0.344 | 2.88 | 3.65 | inactive
PRDX2 (peroxiredoxin 2) | 8 | -0.486 | 73.3 | 52.3 | inactive
PTPRE (protein tyrosine phosphatase receptor type E) | 1 | 0.454 | 63.9 | 87.5 | inactive
PTPRE (protein tyrosine phosphatase receptor type E) | 2 | -0.316 | 72.9 | 58.5 | inactive
PTPRE (protein tyrosine phosphatase receptor type E) | 3 | -0.318 | 63.7 | 51.1 | inactive
PTPRE (protein tyrosine phosphatase receptor type E) | 4 | 0.359 | 81.2 | 104 | inactive
GLG1 (golgi glycoprotein 1) | 1 | 0.342 | 43.1 | 54.6 | inactive
GLG1 (golgi glycoprotein 1) | 2 | -0.0352 | 97.3 | 95 | inactive
GLG1 (golgi glycoprotein 1) | 3 | 0.124 | 45.8 | 49.9 | inactive
GLG1 (golgi glycoprotein 1) | 4 | -0.08 | 100 | 94.7 | inactive
KCNC1 (potassium voltage-gated channel subfamily C member 1) | 1 | -0.0185 | 80.1 | 79 | inactive
KCNC1 (potassium voltage-gated channel subfamily C member 1) | 2 | -0.108 | 64.3 | 59.7 | inactive
KCNC1 (potassium voltage-gated channel subfamily C member 1) | 3 | -0.421 | 18.8 | 14.1 | inactive
KCNC1 (potassium voltage-gated channel subfamily C member 1) | 4 | 0.441 | 73.7 | 100 | inactive

Taken from above.
KCNC1 (potassium voltage-gated channel subfamily C member 1) #4, Call → inactive
For “viability without drug (% of control)”, PTPRE (protein tyrosine phosphatase receptor type E) #4 shows 104
